Results reported in patent US20240408138A1 (UNIVERSITY OF CHICAGO, published 2024).
Positions count from the first letter of the chain named. Results are given in words; binding and its absence hold for the method and conditions named.

Chains of the proteins cited; added tags and fusions are not shown. Residues count along the entry.
UniProt P02769, residues 25-607: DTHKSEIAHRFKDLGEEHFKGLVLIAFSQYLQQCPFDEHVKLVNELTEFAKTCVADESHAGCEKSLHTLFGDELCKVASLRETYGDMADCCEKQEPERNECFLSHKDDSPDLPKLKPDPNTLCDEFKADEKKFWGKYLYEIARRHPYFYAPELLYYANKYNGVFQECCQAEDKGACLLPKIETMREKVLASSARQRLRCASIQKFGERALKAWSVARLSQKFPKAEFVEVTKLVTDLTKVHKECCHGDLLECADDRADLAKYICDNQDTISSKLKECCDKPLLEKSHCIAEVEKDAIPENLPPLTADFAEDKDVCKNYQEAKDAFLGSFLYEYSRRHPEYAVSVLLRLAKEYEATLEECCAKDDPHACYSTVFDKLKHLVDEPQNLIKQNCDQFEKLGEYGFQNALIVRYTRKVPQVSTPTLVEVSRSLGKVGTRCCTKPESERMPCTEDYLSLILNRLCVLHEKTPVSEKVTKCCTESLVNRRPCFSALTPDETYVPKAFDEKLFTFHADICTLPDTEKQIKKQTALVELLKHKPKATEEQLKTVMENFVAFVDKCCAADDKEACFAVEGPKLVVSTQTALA

B1: INC-N-34 (Fab, V domains shown)
VH: EVQLVESGGGLVQPGGSLRLSCAASGFNVSSSSIHWVRQAPGKGLEWVASIYPSSGYTSYADSVKGRFTISADTSKNTAYLQMNSLRAEDTAVYYCARKLAYYWGAQWSYSGYKGMDYWGQGTLVTVSS
VL: DIQMTQSPSSLSASVGDRVTITCRASQSVSSAVAWYQQKPGKAPKLLIYSASSLYSGVPSRFSGSRSGTDFTLTISSLQPEDFATYYCQQSYWYPITFGQGTKVEIKR
notes: also called INC-N-34 Fab
B2: INC-N-38 (Fab, V domains shown)
VH: EVQLVESGGGLVQPGGSLRLSCAASGFNVYSSSIHWVRQAPGKGLEWVAYISSYSGYTYYADSVKGRFTISADTSKNTAYLQMNSLRAEDTAVYYCARTIYSSSYFYTWFIYGAAFDYWGQGTLVTVSS
VL: B1 VL with Y92W, W93M
notes: also called INC-N-38 Fab
B3: INC-N-19 (Fab, V domains shown)
VH: EVQLVESGGGLVQPGGSLRLSCAASGFNVYYSYIHWVRQAPGKGLEWVASIYPYSGYTSYADSVKGRFTISADTSKNTAYLQMNSLRAEDTAVYYCARWRWPGLQFGYGMDYWGQGTLVTVSS
VL: B1 VL with Y94W, I96L
notes: also called INC-N-19 Fab
B4: INC-N-14 (Fab, V domains shown)
VH: EVQLVESGGGLVQPGGSLRLSCAASGFNVSSYSIHWVRQAPGKGLEWVASIYPSSGSTYYADSVKGRFTISADTSKNTAYLQMNSLRAEDTAVYYCARKGYGWFYYYIEWYSPYAFDYWGQGTLVTVSS
VL: B1 VL with W93Y, I96V
notes: light chain shared with INC-N-18; also called INC-N-14 Fab
B5: INC-N-12 (Fab, V domains shown)
VH: EVQLVESGGGLVQPGGSLRLSCAASGFNFSSSSIHWVRQAPGKGLEWVASIYSYSGSTYYADSVKGRFTISADTSKNTAYLQMNSLRAEDTAVYYCARYHWYYYWYWGGVSPAMDYWGQGTLVTVSS
VL: B1 VL with S91M, Y92R, W93Y
notes: also called INC-N-12 Fab
B6: INC-N-06 (Fab, V domains shown)
VH: EVQLVESGGGLVQPGGSLRLSCAASGFNISYSSIHWVRQAPGKGLEWVASIYPYSGSTYYADSVKGRFTISADTSKNTAYLQMNSLRAEDTAVYYCARWSLYGKWYYWWYGLDYWGQGTLVTVSS
VL: B1 VL with S91G, Y92S, W93Y
notes: also called INC-N-06 Fab
B7: INC-N-08 (Fab, V domains shown)
VH: EVQLVESGGGLVQPGGSLRLSCAASGFNFSSSSIHWVRQAPGKGLEWVASIYSYYGSTSYADSVKGRFTISADTSKNTAYLQMNSLRAEDTAVYYCARWMYKGYIFYQYFGLDYWGQGTLVTVSS
VL: B1 VL with Y92F, W93S, Y94N, P95L
notes: also called INC-N-08 Fab

Each binder was assayed against BSA (Bos taurus) (UniProt P02769) (assay: single-point protein ELISA, BSA control wells).

binding, no binding (tested: 200 nM):
B1
B2
B3
B4
B5
B6
B7
